{"source": "patent US20220356163A1", "about": "“SMALL MOLECULE INHIBITORS OF Id PROTEINS” (MEMORIAL SLOAN KETTERING CANCER CENTER, priority 2019, published 2022)", "assay": "Aqueous solubility", "assay_type": "physicochemical", "settings": "with 2-hydroxypropyl-β-cyclodextrin (HPBCD)", "note": "For at least one compound, name, drawing or mass did not settle the structure.", "data": [{"compound": "COc1ccccc1C(CCNCc1ccccc1)c1ccc(OC(C)C)cc1", "note": "(stereo not shown) [AGX-A, N-benzyl-3-(4-isopropoxyphenyl)-3-(2-methoxyphenyl)propan-1-anine]", "values": [{"measurement": "solubilization in aqueous solution", "value": "effectively solubilize AGX-A in aqueous solution"}]}]}
